# No constants are given. Whether binding was seen depends on the method and setting. Binding seen in cells or lysates may run through a third protein. Some results given as binding are weak or reduced against the parent protein; the word gives no strength. Tags and fused reporters may be left off the sequences shown.
# The chains behind the UniProt entries cited, without tags or fusion partners.
# UniProt O22467: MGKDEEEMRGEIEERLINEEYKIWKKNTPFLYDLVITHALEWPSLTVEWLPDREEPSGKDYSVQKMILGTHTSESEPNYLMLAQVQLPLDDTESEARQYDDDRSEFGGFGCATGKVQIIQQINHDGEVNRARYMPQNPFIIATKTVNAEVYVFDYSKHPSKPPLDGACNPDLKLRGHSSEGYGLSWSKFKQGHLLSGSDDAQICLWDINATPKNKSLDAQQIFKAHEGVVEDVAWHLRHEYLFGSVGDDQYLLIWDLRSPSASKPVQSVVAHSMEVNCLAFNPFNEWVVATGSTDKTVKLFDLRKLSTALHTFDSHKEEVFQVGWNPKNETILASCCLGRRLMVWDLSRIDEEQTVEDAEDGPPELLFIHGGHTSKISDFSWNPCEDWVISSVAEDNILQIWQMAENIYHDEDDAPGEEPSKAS
# T1: GFP-RZ-1C (Arabidopsis thaliana) (UniProt Q8RWN5)
# T1 sequence: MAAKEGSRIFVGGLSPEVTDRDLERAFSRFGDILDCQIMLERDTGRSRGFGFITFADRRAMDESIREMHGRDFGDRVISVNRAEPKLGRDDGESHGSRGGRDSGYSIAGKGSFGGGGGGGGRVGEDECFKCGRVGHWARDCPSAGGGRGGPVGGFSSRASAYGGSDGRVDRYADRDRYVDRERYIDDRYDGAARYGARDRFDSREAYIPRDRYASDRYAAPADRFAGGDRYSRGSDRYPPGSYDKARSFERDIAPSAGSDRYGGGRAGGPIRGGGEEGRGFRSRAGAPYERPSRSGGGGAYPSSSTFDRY
# Biological target: T1, GFP-RZ-1C (Arabidopsis thaliana)
# Experiment: co-IP
row,Molecule,binding
1,MSI1-3×FLAG (from UniProt O22467 1-424),binds
2,"HDA19-3×FLAG (enzyme, UniProt O22446 1-501) MDTGGNSLASGPDGVKRKVCYFYDPEVGNYYYGQGHPMKPHRIRMTHALLAHYGLLQHMQVLKPFPARDRDLCRFHADDYVSFLRSITPETQQDQIRQLKRFNVGEDCPVFDGLYSFCQTYAGGSVGGSVKLNHGLCDIAINWAGGLHHAKKCEASGFCYVNDIVLAILELLKQHERVLYVDIDIHHGDGVEEAFYATDRVMTVSFHKFGDYFPGTGHIQDIGYGSGKYYSLNVPLDDGIDDESYHLLFKPIMGKVMEIFRPGAVVLQCGADSLSGDRLGCFNLSIKGHAECVKFMRSFNVPLLLLGGGGYTIRNVARCWCYETGVALGVEVEDKMPEHEYYEYFGPDYTLHVAPSNMENKNSRQMLEEIRNDLLHNLSKLQHAPSVPFQERPPDTETPEVDEDQEDGDKRWDPDSDMDVDDDRKPIPSRVKREAVEPDTKDKDGLKGIMERGKGCEVEVDESGSTKVTGVNPVGVEEASVKMEEEGTNKGGAEQAFPPKT",binds
3,"AL2-3×FLAG (protein, UniProt Q9SRM4 1-246) MAAAAVSSNPRTVEEIFKDYSARRAALLRALTKDVDDFYSQCDPEKENLCLYGHPNESWEVNLPAEEVPPELPEPALGINFARDGMQRKDWLSLVAVHSDCWLLSVSFYFGARLNRNERKRLFSLINDLPTLFDVVTGRKAMKDNKPSSDSGSKSRNGTKRSIDGQTKSSTPKLMEESYEEEEEEDEHGDTLCGSCGGHYTNEEFWICCDVCERWYHGKCVKITPAKAESIKQYKCPPCCAKKGRQ",binds

# From paper doi:10.1101/2021.10.08.463712
